Test results as given in paper PMC10746786 (2023).
Results are given in words; binding and its absence hold for the method and conditions named. Binding seen in cells or lysates may run through a third protein. These calls come from enrichment with a bait or labelling near it, and not all partners need be listed. For part of these data: Sequences can lack the tags named with a protein.

The chains behind the UniProt entries cited, without tags or fusion partners.
UniProt P60842: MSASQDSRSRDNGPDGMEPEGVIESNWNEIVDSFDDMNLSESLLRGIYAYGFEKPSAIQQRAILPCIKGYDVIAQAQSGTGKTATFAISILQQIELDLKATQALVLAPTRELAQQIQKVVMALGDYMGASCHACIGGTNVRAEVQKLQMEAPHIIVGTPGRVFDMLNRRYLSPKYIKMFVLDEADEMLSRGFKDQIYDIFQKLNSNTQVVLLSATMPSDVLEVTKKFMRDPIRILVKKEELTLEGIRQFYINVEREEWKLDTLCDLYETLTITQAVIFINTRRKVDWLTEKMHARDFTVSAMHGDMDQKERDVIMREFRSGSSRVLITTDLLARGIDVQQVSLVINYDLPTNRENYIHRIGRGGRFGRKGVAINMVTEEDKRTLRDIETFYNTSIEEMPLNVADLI
UniProt Q86US8: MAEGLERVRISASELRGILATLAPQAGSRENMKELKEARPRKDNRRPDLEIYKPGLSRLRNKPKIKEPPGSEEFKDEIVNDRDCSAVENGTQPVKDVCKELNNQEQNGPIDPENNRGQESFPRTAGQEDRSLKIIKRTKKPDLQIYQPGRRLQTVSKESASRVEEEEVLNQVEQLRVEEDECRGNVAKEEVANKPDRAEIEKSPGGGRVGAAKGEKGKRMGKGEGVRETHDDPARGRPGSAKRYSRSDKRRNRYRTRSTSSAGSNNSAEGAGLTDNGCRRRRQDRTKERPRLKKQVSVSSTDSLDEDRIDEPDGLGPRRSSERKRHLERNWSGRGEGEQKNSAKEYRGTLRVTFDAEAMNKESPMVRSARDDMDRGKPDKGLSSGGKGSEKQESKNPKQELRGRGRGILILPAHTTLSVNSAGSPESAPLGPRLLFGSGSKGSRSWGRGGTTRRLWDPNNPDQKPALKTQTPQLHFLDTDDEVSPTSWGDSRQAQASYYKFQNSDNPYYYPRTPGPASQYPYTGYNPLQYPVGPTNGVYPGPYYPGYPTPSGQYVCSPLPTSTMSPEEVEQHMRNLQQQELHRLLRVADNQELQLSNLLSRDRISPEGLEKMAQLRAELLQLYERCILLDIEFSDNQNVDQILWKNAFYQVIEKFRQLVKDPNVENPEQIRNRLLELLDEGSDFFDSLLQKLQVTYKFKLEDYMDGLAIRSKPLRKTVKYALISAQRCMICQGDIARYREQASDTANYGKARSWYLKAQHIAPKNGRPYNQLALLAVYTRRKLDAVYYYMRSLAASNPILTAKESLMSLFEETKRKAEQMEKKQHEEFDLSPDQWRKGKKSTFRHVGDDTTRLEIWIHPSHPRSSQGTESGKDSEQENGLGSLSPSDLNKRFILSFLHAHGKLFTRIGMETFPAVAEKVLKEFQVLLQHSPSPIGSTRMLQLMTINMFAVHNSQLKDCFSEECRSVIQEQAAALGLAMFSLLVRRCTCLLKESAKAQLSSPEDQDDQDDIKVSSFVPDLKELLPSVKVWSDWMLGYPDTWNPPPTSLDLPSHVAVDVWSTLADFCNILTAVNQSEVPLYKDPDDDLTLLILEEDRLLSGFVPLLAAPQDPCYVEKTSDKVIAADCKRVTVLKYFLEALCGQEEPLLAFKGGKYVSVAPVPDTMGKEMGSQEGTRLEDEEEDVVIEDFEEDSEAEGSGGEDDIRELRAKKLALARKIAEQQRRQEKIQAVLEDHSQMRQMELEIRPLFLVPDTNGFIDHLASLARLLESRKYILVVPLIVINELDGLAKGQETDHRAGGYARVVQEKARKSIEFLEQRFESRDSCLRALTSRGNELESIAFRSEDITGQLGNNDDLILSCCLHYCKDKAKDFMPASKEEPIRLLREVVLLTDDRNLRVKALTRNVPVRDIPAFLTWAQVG
UniProt O75822: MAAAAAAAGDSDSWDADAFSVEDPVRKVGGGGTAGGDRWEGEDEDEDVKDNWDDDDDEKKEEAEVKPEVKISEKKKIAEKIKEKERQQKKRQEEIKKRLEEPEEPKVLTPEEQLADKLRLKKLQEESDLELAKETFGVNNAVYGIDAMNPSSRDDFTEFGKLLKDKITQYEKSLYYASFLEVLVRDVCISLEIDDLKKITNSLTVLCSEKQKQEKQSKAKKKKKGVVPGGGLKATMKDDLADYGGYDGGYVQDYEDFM
UniProt O15372: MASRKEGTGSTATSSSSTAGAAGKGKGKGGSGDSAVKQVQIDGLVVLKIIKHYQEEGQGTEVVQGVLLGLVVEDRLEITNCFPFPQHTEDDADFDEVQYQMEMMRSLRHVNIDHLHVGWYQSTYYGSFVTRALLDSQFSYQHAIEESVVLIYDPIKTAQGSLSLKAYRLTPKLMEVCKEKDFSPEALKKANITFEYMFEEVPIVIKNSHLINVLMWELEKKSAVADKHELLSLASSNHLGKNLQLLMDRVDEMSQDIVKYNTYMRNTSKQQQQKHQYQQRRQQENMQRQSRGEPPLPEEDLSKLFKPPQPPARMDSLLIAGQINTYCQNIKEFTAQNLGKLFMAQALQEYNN
UniProt Q9Y520: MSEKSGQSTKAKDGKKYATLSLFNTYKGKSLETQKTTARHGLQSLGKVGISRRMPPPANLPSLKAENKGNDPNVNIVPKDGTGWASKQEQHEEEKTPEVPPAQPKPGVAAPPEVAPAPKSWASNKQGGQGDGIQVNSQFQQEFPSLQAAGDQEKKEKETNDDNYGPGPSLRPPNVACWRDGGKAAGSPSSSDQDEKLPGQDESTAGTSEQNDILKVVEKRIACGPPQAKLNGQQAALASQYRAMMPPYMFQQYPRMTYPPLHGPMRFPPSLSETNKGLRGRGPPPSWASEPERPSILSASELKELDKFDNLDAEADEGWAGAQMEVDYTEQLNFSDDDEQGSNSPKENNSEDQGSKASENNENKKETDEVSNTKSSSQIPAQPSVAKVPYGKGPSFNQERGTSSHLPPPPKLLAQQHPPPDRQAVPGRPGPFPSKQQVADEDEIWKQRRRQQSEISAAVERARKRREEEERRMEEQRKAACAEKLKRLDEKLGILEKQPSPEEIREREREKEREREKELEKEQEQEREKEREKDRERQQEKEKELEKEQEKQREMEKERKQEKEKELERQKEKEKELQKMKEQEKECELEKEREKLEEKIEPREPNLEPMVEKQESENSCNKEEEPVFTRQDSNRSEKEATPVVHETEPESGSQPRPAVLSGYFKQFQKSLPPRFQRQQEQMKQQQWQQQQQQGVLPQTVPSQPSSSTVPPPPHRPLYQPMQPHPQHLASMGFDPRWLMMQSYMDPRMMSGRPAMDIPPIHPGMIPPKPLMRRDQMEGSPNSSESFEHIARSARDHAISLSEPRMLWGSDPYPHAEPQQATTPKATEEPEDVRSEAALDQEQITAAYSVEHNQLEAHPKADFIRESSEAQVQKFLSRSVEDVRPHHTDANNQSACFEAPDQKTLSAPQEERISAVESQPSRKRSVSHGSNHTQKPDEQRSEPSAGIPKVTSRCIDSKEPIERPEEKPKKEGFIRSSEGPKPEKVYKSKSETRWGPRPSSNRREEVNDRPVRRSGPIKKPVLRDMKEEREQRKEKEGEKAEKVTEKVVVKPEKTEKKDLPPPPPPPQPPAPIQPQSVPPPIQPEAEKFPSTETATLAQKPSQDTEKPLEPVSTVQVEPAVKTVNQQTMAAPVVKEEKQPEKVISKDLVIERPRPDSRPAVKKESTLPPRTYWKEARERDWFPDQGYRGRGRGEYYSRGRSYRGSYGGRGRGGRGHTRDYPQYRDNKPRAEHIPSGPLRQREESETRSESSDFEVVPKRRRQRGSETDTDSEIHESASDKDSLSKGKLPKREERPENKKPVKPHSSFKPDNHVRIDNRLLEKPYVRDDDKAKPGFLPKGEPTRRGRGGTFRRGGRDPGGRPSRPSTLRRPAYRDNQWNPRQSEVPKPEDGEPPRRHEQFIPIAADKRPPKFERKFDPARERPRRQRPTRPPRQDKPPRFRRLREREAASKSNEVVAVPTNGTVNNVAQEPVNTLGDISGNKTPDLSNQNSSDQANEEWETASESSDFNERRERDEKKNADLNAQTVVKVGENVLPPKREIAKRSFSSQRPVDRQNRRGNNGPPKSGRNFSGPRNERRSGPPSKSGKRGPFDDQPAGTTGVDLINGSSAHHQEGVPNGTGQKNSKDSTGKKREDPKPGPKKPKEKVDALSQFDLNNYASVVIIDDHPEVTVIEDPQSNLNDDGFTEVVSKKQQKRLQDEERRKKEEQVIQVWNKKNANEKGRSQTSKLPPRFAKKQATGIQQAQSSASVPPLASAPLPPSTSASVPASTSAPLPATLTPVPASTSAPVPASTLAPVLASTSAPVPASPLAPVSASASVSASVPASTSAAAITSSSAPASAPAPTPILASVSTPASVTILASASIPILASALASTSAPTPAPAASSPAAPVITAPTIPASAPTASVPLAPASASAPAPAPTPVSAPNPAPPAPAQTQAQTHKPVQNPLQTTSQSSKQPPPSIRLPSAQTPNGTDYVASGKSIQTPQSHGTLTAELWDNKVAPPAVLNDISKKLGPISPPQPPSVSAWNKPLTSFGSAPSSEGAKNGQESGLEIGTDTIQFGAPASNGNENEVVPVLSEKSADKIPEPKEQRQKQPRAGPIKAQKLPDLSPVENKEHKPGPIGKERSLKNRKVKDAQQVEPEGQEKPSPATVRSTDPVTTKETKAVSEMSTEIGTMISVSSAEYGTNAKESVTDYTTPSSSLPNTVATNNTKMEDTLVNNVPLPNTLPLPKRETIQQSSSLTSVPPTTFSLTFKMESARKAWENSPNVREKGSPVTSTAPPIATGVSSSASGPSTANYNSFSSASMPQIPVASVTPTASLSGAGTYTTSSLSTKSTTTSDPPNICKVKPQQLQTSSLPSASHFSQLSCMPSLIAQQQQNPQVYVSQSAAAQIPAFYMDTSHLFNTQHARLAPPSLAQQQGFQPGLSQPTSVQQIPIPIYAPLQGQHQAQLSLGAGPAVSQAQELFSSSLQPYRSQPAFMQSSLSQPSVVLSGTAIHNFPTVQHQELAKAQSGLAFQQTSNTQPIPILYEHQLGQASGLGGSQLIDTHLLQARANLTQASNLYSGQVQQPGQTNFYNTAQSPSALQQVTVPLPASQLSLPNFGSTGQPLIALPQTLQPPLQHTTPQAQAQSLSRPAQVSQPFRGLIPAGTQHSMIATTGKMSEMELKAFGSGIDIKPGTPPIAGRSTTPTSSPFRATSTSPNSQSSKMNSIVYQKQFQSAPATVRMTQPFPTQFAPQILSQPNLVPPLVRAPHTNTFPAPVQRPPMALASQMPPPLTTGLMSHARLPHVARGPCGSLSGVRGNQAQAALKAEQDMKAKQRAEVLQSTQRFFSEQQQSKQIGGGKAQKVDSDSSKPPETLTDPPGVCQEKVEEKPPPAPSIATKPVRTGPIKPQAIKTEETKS
UniProt P20042: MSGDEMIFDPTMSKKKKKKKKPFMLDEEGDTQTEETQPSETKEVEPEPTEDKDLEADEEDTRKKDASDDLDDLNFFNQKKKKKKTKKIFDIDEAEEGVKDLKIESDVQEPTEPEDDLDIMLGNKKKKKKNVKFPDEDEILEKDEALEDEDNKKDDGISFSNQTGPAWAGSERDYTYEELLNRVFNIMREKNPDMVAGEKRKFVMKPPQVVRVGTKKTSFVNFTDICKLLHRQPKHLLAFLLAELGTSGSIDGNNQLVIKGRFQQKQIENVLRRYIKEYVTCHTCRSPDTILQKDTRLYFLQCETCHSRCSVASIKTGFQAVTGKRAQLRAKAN
UniProt O75821: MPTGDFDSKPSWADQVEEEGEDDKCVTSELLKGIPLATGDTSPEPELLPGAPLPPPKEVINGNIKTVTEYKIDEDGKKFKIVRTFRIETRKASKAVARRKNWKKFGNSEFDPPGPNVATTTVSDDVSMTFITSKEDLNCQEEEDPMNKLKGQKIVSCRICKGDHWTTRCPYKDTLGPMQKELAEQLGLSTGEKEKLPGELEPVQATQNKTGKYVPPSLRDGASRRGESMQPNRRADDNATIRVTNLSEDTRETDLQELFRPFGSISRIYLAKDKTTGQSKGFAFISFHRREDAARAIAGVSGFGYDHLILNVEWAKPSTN
UniProt Q14240: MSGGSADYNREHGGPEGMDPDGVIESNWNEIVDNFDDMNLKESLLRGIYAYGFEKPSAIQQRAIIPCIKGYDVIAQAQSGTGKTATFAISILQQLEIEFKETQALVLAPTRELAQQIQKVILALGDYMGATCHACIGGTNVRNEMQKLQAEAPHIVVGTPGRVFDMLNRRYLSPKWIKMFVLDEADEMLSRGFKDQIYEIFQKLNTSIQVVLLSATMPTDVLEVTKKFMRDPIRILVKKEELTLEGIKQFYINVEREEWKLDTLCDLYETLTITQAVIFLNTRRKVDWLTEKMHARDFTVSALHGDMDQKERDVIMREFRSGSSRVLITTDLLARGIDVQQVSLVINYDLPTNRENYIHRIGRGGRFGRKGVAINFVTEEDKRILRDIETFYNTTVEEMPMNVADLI

B1: ASCC2 (protein, UniProt Q9H1I8 1-757)
chain: MPALPLDQLQITHKDPKTGKLRTSPALHPEQKADRYFVLYKPPPKDNIPALVEEYLERATFVANDLDWLLALPHDKFWCQVIFDETLQKCLDSYLRYVPRKFDEGVASAPEVVDMQKRLHRSVFLTFLRMSTHKESKDHFISPSAFGEILYNNFLFDIPKILDLCVLFGKGNSPLLQKMIGNIFTQQPSYYSDLDETLPTILQVFSNILQHCGLQGDGANTTPQKLEERGRLTPSDMPLLELKDIVLYLCDTCTTLWAFLDIFPLACQTFQKHDFCYRLASFYEAAIPEMESAIKKRRLEDSKLLGDLWQRLSHSRKKLMEIFHIILNQICLLPILESSCDNIQGFIEEFLQIFSSLLQEKRFLRDYDALFPVAEDISLLQQASSVLDETRTAYILQAVESAWEGVDRRKATDAKDPSVIEEPNGEPNGVTVTAEAVSQASSHPENSEEEECMGAAAAVGPAMCGVELDSLISQVKDLLPDLGEGFILACLEYYHYDPEQVINNILEERLAPTLSQLDRNLDREMKPDPTPLLTSRHNVFQNDEFDVFSRDSVDLSRVHKGKSTRKEENTRSLLNDKRAVAAQRQRYEQYSVVVEEVPLQPGESLPYHSVYYEDEYDDTYDGNQVGANDADSDDELISRRPFTIPQVLRTKVPREGQEEDDDDEEDDADEEAPKPDHFVQDPAVLREKAEARRMAFLAKKGYRHDSSTAVAGSPRGHGQSRETTQERRKKEANKATRANHNRRTMADRKRSKGMIPS
B2: TSR1 (protein, UniProt Q2NL82 1-804)
chain: MAAHRPGPLKQQNKAHKGGRHRGRGSAQRDGKGRLALKTLSKKVRKELSRVDQRHRASQLRKQKKEAVLAEKRQLGGKDGPPHQVLVVPLHSRISLPEAMQLLQDRDTGTVHLNELGNTQNFMLLCPRLKHRWFFTSARPGDLHVVLDMAKVADTILFLLDPLEGWDSTGDYCLSCLFAQGLPTYTLAVQGISGLPLKKQIDTRKKLSKAVEKRFPHDKLLLLDTQQEAGMLLRQLANQKQQHLAFRDRRAYLFAHAVDFVPSEENNLVGTLKISGYVRGQTLNVNRLLHIVGYGDFQMKQIDAPGDPFPLNPRGIKPQKDPDMAMEICATDAVDDMEEGLKVLMKADPGRQESLQAEVIPDPMEGEQTWPTEEELSEAKDFLKESSKVVKKVPKGTSSYQAEWILDGGSQSGGEGDEYEYDDMEHEDFMEEESQDESSEEEEEYETMTIGESVHDDLYDKKVDEEAEAKMLEKYKQERLEEMFPDEVDTPRDVAARIRFQKYRGLKSFRTSPWDPKENLPQDYARIFQFQNFTNTRKSIFKEVEEKEVEGAEVGWYVTLHVSEVPVSVVECFRQGTPLIAFSLLPHEQKMSVLNMVVRRDPGNTEPVKAKEELIFHCGFRRFRASPLFSQHTAADKHKLQRFLTADMALVATVYAPITFPPASVLLFKQKSNGMHSLIATGHLMSVDPDRMVIKRVVLSGHPFKIFTKMAVVRYMFFNREDVLWFKPVELRTKWGRRGHIKEPLGTHGHMKCSFDGKLKSQDTVLMNLYKRVFPKWTYDPYVPEPVPWLKSEISSTVPQGGME
B3: PDCD4, Q53EL6 1-469 (protein)
chain: MDVENEQILNVNPADPDNLSDSLFSGDEENAGTEEIKNEINGNWISASSINEARINAKAKRRLRKNSSRDSGRGDSVSDSGSDALRSGLTVPTSPKGRLLDRRSRSGKGRGLPKKGGAGGKGVWGTPGQVYDVEEVDVKDPNYDDDQENCVYETVVLPLDERAFEKTLTPIIQEYFEHGDTNEVAEMLRDLNLGEMKSGVPVLAVSLALEGKASHREMTSKLLSDLCGTVMSTTDVEKSFDKLLKDLPELALDTPRAPQLVGQFIARAVGDGILCNTYIDSYKGTVDCVQARAALDKATVLLSMSKGGKRKDSVWGSGGGQQSVNHLVKEIDMLLKEYLLSGDISEAEHCLKELEVPHFHHELVYEAIIMVLESTGESTFKMILDLLKSLWKSSTITVDQMKRGYERIYNEIPDINLDVPHSYSVLERFVEECFQAGIISKQLRDLCPSRGRKRFVSEGDGGRLKPESY

These molecules were tested against FLAG-tagged EIF4G2 WT (human) (UniProt P78344) (assay: affinity purification with mass spectrometry; FLAG-EIF4G2 WT or mutant transfected into HEK293T; 5 mg lysate in B-buffer (20 mM Hepes-KOH pH 7.6, 100 mM KCl, 0.5 mM EDTA, 0.4% NP-40, 20% glycerol) on FLAG beads, 4°C, 2 h; no RNase; control IP FLAG-mCherry; two separate experiments (WT with four or with two mutants); mutant against WT after correction for EIF4G2 levels in the IP). Conditions: not given.

binding, binds:
EIF4A1 (from UniProt P60842 1-406), ASCC3 (from UniProt Q8N3C0 1-2202), SMG6 (from UniProt Q86US8 1-1419), EIF3J (from UniProt O75822 1-258), EIF3H (from UniProt O15372 1-352), PRRC2C (from UniProt Q9Y520 1-2896), EIF2S2 (from UniProt P20042 1-333), EIF3G (from UniProt O75821 1-320), EIF4A2 (from UniProt Q14240 1-407), B1, B2

Target: T1, FLAG-tagged EIF4G2 WT (human), P78344
T1 chain: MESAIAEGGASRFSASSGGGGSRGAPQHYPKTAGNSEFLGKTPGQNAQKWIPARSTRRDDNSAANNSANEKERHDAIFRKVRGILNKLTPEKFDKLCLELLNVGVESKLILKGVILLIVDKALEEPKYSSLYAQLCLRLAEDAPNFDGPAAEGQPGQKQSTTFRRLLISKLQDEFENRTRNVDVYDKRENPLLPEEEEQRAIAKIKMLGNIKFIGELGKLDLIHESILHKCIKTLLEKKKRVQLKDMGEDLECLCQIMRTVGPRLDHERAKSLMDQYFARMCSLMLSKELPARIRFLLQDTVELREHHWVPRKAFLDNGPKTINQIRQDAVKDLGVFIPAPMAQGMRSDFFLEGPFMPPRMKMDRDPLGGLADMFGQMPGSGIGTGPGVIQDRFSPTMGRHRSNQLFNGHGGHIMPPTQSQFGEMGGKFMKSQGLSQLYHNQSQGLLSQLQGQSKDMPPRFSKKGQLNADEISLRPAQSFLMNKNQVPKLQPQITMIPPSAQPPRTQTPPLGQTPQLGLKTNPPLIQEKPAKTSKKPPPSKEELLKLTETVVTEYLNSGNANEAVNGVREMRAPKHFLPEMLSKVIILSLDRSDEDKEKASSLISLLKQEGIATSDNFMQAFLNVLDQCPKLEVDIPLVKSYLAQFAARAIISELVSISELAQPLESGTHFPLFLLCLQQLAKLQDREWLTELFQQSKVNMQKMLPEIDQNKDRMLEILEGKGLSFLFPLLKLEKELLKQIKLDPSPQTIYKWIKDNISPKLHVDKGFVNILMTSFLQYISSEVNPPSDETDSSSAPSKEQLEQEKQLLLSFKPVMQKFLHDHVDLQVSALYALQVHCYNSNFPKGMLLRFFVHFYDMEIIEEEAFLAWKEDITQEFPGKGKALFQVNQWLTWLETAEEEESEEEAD
Experiment: as above
Conditions: remark: other sources report otherwise

binding, binds:
B3
